{"source": "patent US20250312349A1", "about": "“COMPOSITION AND METHODS OF TREATING INTRACELLULAR PATHOGEN INFECTION” (UNIVERSITY HOSPITALS CLEVELAND MEDICAL CENTER, priority 2024, published 2025)", "tested_on": "ME49 T. gondii", "assay": "Suboptimal dose combination in mice with ocular and cerebral toxoplasmosis", "assay_type": "in vivo, C57BL/6 mice", "settings": "4.2 mg/Kg once a day, 14 days", "protocol": "C57BL/6 mice that had been infected with tissue cysts of ME49 T. gondii for 4 weeks (at a time when animals have developed ocular and cerebral toxoplasmosis), were treated with suboptimal dose of Saracatinib (2.5 mg/Kg once a day) with or without suboptimal dose of Pyrimethamine (4.2 mg/Kg once a day) for 14 days.", "note": "At least one structure is not confirmed: it was looked up by name or label, or the drawing left a doubt.", "data": [{"smiles": "CCc1nc(N)nc(N)c1-c1ccc(Cl)cc1", "note": "[Pyrimethamine]", "values": [{"measurement": "load of tissue cysts", "result": "neither the low dose Saracatinib nor the low dose Pyrimethamine decreased"}]}]}
